Laboratory results taken from patent US20080207738A1, “DRUG COMBINATIONS TO TREAT DRUG RESISTANT TUMORS” (priority 2007, published 2008).
Some results were stated once for a whole list of compounds, not compound by compound. Some ranges recur; such a range may be that of the whole group of compounds.

The compounds below were run on MCF-7/ADR cells (assay: MTT cell viability, MCF-7/ADR cells). Conditions: 72 h; CCcompound104 5 μg/ml, EA 60 μM, CCcompound26/CCcompound3/CCcompound19 50 μM, alone or combined.
Format: cell-based, human
Protocol: MCF/ADR cells were selected by incubating the parent MCF-7 with toxic concentrations (up to 10 μM) of adriamycin (doxorubicin). The selected drug resistant cells express both MDR1 and MRP1 among other molecular alterations as reviewed earlier [Kiss, Z., Tomono, M. and Anderson, W. B. (1994), “Phorbol ester selectively stimulates the phospholipase D-mediated hydrolysis of phosphatidylethanolamine in multidrug-resistant MCF-7 human breast carcinoma cells,” Biochem. J., 302, 649-654]. […] Ethacrynic acid (EA) alone, used at 60 μM concentration, decreased cell viability by about 24%, while CCcompound104 and EA in combination had 70% inhibitory effects (Table 7). In this cell line CCcompound104 and EA decreased cell viability synergistically.

SMILES	Inhibition (%) of viability
CC[N+](C)(CC)CCOCc1ccc2sc3ccccc3c(=O)c2c1 [CCcompound3]	20-24%
C[N+](C)(C)CCC=C1c2ccccc2Sc2ccccc21.[I-] [CCcompound19, N,N,N-trimethyl-3-(9H-thioxanthen-9-ylidene)-propan-1-aminium iodide]	20-24%
C=CC[N+](CC)(CC)CC/C=C1/c2ccccc2Sc2ccc(C)cc21.[Br-] [CCcompound26, N,N-Diethyl-N-allyl-3-(2-methyl-9H-thioxanthen-9-ylidene)-propan-1-aminiumbromide]	20-24%
